The other results are listed elsewhere or left out. Construct or isoform of the protein are uncertain.
Biological target: T1, ETS1 (UniProt P14921)
T1 sequence: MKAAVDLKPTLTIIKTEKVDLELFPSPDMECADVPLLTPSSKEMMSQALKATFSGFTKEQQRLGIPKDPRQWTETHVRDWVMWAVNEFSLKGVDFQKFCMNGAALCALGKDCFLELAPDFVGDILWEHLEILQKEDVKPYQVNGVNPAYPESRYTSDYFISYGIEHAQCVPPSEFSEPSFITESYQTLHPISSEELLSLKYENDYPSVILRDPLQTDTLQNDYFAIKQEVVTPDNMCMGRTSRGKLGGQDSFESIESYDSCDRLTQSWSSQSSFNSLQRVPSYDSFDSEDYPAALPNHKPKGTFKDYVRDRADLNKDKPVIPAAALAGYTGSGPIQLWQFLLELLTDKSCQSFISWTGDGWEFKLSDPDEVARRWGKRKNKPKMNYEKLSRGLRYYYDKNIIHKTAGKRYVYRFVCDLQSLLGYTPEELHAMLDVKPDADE
Assay: DAPPL (digital affinity profiling via proximity ligation, sequencing)
Conditions: 10 mM Tris-HCl pH 7.5, 50 mM NaCl, 1 mM DTT, 4% glycerol, room temperature, 30 min; GST-TFs on glutathione beads, 16-mer random dsDNA library, 0.1% …; high values mean tight binding; double strand, one strand shown; scale: fold enrichment (6-mer frequency, TF over GST control)

Sequence	binding signal
CTCCTT	1.78
GCCTTG	1.35
AAAACT	1.33
TGCTAT	1.44
ATGGCT	1.46
GGCCTA	1.18
CTAGGT	1.19
ATTCTG	1.25
TCCTCA	1.59
TACCGC	1.11
GCCTCG	1.37
TCTGGG	1.24
CACACT	1.22
ACATCC	2.52
TATGTA	1.42
TTAGTT	1.35
ATGAAT	1.16
TACCCT	1.41
GATTAT	1.17
GCTGAT	1.08

Sequence	binding signal
CTAGCT	1.35
TACACG	1.17
GATGAC	1.45
CATTCC	1.29
GCGCTC	1.12
TCGATT	1
AAATTC	1.31
TTAAGC	1.18
TTCTTC	1.94
ATTTGG	1.37
TGACTC	1.37
TCTCGG	1.5
CAGGAT	1.24
CTTTCA	1.34
CGCGTC	1.13
GGCTTC	1.7
TGACCT	1.68
CTAAAC	1.23
GCTTTA	1.1

From paper PMC7862700
